Assay results: paper PMC9585078
Results are given in words; binding and its absence hold for the method and conditions named. Binding seen in cells or lysates may run through a third protein. Some entries that bind do so weakly or less than the wild type. For some assays here: Where a sequence is shown, tags or fusion partners need not be part of it.

Amino acid sequences for entries named in this document (tags omitted). Residues count along the entry.
UniProt P40189, residues 23-918: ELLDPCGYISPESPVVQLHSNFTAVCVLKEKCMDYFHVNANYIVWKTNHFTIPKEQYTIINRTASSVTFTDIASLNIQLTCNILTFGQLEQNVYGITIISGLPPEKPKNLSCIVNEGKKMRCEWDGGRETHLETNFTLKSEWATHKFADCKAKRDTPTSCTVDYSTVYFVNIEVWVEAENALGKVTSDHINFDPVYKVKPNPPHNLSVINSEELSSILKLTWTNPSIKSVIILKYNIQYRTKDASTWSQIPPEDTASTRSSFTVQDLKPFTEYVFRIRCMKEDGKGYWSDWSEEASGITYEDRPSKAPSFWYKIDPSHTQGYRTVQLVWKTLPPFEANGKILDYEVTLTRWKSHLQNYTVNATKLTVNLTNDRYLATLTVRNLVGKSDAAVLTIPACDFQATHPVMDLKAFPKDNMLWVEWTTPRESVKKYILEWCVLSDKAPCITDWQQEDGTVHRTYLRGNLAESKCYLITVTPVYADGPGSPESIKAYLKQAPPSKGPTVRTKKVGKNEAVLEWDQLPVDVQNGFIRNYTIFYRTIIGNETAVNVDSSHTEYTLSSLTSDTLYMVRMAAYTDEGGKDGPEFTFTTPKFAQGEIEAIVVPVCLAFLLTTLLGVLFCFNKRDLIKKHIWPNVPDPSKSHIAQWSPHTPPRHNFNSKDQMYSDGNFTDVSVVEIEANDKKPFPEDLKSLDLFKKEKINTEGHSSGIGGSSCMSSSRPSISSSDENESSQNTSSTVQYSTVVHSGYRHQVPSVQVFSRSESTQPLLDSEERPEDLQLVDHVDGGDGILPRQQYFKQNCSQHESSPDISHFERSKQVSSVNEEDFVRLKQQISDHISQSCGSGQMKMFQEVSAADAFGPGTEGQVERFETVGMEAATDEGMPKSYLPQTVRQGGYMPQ
UniProt Q00560, residues 23-917: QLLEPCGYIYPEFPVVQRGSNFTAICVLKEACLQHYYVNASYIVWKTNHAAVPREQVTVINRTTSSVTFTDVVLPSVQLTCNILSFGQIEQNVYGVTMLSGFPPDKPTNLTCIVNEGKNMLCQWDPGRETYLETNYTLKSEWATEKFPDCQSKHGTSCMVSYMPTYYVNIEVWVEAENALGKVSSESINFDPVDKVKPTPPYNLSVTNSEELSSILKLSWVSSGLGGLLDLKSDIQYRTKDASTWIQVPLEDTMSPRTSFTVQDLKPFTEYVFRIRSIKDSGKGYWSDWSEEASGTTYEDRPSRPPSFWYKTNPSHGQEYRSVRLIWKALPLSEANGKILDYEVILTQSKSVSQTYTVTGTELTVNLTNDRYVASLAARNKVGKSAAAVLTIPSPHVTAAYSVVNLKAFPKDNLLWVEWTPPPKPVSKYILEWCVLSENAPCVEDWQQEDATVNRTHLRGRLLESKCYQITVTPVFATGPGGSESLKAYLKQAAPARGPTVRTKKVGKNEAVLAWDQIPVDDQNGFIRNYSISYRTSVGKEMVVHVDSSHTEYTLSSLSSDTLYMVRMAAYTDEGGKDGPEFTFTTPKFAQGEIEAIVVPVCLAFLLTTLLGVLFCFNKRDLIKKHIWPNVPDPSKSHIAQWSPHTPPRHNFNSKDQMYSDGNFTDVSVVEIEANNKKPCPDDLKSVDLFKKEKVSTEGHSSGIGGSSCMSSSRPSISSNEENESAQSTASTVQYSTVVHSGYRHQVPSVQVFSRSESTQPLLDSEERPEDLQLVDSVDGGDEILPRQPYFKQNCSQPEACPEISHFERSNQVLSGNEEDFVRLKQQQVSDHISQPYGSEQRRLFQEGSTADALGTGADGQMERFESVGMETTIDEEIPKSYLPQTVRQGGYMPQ

Assays:
[1] = target: T1, FLAG-tagged PROM1 deletion mutant 1-456 (human) (UniProt O43490); assay: co-IP; HEK 293 cells transfected for 48 h with FLAG-tagged PROM1 (full length, deletion mutants or PROM1^GPI-EX1) and GP130-His; reciprocal immunoprecipitation for the full-length pair; NP-40 lysates (25 mM HEPES, 150 mM NaCl, 1% NP-40), 4 °C; also after MβCD cholesterol depletion (interaction not changed)
T1 sequence: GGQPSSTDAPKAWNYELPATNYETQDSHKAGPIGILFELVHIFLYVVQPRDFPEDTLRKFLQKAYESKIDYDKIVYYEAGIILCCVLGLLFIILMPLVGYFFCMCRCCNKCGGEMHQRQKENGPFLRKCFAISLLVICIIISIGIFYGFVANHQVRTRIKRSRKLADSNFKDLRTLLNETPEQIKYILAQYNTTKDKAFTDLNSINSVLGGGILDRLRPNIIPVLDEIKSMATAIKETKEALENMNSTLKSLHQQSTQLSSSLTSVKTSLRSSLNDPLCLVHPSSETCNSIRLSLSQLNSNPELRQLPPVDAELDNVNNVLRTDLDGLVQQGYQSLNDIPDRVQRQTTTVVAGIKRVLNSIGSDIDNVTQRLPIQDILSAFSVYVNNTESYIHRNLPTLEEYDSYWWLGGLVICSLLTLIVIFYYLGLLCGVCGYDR

[2] = target: T2, FLAG-tagged human PROM1 transcript variant 2, full length (1-856) (human) (UniProt O43490); assay: as above
T2 sequence: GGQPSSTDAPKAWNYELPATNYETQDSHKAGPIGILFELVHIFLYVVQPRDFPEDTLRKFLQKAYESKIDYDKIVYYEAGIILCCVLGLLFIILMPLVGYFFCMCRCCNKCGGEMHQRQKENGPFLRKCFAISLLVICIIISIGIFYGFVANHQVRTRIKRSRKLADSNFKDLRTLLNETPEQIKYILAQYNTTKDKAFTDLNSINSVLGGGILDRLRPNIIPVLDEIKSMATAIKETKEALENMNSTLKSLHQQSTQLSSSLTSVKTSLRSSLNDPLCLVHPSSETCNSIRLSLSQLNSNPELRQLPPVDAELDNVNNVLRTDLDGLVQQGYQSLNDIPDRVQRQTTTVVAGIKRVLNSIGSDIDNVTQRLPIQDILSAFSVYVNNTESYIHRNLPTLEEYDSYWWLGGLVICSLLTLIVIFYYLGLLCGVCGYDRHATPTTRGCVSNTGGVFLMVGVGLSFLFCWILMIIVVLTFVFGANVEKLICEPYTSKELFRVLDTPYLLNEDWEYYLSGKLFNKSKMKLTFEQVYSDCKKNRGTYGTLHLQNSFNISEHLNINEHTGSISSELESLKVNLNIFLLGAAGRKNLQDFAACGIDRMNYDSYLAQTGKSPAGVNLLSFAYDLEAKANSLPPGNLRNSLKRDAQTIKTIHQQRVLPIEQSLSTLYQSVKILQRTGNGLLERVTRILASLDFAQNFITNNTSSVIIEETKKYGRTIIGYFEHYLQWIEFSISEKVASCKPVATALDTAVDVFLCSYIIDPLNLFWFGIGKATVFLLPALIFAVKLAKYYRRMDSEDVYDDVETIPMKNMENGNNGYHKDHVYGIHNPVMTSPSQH

[3] = target: T3, FLAG-tagged PROM1 deletion mutant 1-812 (human) (UniProt O43490); assay: as above
T3 sequence: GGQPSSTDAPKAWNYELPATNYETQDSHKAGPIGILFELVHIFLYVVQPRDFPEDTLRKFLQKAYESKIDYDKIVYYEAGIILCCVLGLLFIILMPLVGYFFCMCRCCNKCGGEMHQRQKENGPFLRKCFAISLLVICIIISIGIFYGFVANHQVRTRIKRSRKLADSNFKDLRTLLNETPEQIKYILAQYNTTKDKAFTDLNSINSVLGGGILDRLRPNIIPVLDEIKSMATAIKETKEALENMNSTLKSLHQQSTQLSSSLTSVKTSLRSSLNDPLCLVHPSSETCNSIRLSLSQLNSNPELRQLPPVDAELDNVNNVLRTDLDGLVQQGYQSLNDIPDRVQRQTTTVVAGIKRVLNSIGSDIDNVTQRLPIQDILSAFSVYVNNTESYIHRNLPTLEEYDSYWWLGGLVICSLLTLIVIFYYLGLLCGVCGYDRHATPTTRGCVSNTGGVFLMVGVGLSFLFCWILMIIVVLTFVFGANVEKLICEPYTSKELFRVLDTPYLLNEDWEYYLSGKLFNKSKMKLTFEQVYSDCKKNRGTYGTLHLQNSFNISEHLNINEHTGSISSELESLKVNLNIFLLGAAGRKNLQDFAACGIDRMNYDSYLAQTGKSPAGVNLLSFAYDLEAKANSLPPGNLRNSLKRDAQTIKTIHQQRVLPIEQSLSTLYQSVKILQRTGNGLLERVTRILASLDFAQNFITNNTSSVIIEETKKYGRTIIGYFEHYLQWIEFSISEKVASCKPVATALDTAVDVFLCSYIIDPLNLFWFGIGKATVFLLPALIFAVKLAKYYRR

[4] = target: T4, FLAG-tagged PROM1 deletion mutant 1-133 (human) (UniProt O43490); assay: as above
T4 sequence: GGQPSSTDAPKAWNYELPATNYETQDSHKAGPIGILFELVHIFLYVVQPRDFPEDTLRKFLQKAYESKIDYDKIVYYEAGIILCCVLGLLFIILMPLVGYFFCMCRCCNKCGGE

[5] = target: T5, Prominin-1 (PROM1), endogenous, mouse liver (mouse (endogenous in liver)) (UniProt O54990); assay: co-IP; immunoprecipitation with anti-PROM1 or normal IgG from wild-type mouse liver lysate 48 h after PHx; lysis and wash buffer 25 mM HEPES, 150 mM NaCl, 1% NP-40, 10 mM MgCl2, 1 mM EDTA, 2% glycerol; 4 °C; immunoblot for endogenous PROM1 and GP130
T5 sequence: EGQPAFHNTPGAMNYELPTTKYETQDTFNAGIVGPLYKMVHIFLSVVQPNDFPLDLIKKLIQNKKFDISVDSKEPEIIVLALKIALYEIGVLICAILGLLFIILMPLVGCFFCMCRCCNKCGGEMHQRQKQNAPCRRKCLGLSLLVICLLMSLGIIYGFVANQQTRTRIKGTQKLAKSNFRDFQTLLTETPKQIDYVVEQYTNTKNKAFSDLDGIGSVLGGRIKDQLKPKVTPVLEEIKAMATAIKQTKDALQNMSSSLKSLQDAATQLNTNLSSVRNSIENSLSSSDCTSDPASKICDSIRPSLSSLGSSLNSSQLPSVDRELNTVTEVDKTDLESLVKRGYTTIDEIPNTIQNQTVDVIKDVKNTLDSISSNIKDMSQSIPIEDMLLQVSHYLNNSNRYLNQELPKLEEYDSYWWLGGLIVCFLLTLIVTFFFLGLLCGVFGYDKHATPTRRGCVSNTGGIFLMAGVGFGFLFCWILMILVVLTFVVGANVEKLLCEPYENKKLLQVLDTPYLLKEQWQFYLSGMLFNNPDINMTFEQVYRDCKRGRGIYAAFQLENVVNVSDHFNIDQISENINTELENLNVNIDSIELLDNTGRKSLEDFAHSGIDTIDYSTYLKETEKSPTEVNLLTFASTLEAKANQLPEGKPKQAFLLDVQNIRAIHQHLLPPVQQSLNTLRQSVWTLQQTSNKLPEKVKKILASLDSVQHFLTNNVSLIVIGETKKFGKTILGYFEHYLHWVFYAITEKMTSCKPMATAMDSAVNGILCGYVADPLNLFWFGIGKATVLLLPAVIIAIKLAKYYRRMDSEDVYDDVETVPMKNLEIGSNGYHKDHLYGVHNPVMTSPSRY

Substance | binding [1] | binding [2] | binding [3] | binding [4] | binding [5]
His-tagged GP130 (from UniProt P40189 23-918) (receptor) | binds | binds | binds | binds | 
interleukin-6 signal transducer glycoprotein 130 (GP130), endogenous, mouse liver (from UniProt Q00560 23-917) (receptor) |  |  |  |  | binds
